Results deposited as PubChem BioAssay AID743454 (Peter MacCallum Cancer Centre, 2014)
In all, the deposit lists about 18,000 reagents; this is an unselected part. 450 of all reagents (2.5%) count as active. 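Single biological run; no consistent viability z cut-off exists, so the class columns, not z-scores, define the calls.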 No sequences are given here.

Aim: 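Genes whose loss kills vorinostat-resistant colon cancer cells under vorinostat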 (primary screen)
Cell system: human HCT116-VR colon cancer cells, selected for vorinostat resistance
Reagents: siRNA pool against human genes, 40 nM siRNA pool
Duration: vorinostat for 24 h, read-out about 72 h after transfection
Challenge: vorinostat at 2.5 µM final
Measurement: 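Cell viability by CellTiter-Fluor and caspase 3/7 activity by luminescence, each scaled to mock wells per plate, duplicates averaged, then robust z-scored over all plates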
Reading the numbers: viability robust z-score: higher = more viable cells than screen typical; caspase robust z-score: higher = more caspase 3/7 activity than screen typical
Hit rule: 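a knock-down is a hit when classed RV1 or RV2 for lowered viability, or CA1 or CA2 for caspase activation; those lethal without drug were dropped; hits were retested singly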

For ARHGEF39 (GeneID 84904), what was measured?
viability hit class: no change; caspase hit class: no change; viability robust z-score: -0.34; caspase robust z-score: -0.93; activity call: inactive

With CBLN3 (GeneID 643866), what was measured?
viability hit class: no change; caspase hit class: no change; viability robust z-score: 0.24; caspase robust z-score: -0.22; activity call: inactive

With SKIL (GeneID 6498), how do the results read?
viability hit class: no change; caspase hit class: no change; viability robust z-score: 1; caspase robust z-score: -1.09; activity call: inactive

What is on record for CD40 (GeneID 958)?
viability hit class: no change; caspase hit class: no change; viability robust z-score: -0.3; caspase robust z-score: -1.3; activity call: inactive

How did the screen score GDF10 (GeneID 2662)?
viability hit class: no change; caspase hit class: no change; viability robust z-score: -0.78; caspase robust z-score: 2.55; activity call: inactive

What did the screen give for AQP9 (GeneID 366)?
viability hit class: no change; caspase hit class: no change; viability robust z-score: 0.45; caspase robust z-score: 0.2; activity call: inactive

With CLN3 (GeneID 1201), what does the deposit list?
viability hit class: no change; caspase hit class: no change; viability robust z-score: 1.14; caspase robust z-score: 0.2; activity call: inactive

How did the screen score PCDHAC2 (GeneID 56134)?
viability hit class: no change; caspase hit class: no change; viability robust z-score: -1.38; caspase robust z-score: 0.11; activity call: inactive

With GDF6 (GeneID 392255), what does the deposit list?
viability hit class: no change; caspase hit class: no change; viability robust z-score: -0.27; caspase robust z-score: -0.38; activity call: inactive

How did the screen score CLUL1 (GeneID 27098)?
viability hit class: no change; caspase hit class: no change; viability robust z-score: -0.01; caspase robust z-score: -1.08; activity call: inactive

What did the screen give for ETFDH (GeneID 2110)?
viability hit class: no change; caspase hit class: no change; viability robust z-score: -1.18; caspase robust z-score: 0.92; activity call: inactive

With SCAND3 (GeneID 114821), what was measured?
viability hit class: no change; caspase hit class: no change; viability robust z-score: 0.51; caspase robust z-score: -1.21; activity call: inactive

What did the screen give for CTAGE1 (GeneID 64693)?
viability hit class: no change; caspase hit class: no change; viability robust z-score: 0.38; caspase robust z-score: -0.14; activity call: inactive

For SLC2A4 (GeneID 6517), what was measured?
viability hit class: no change; caspase hit class: no change; viability robust z-score: 0.15; caspase robust z-score: -0.66; activity call: inactive

With SFN (GeneID 2810), how do the results read?
viability hit class: no change; caspase hit class: no change; viability robust z-score: -0.54; caspase robust z-score: 0.58; activity call: inactive

How did the screen score ADPRS (GeneID 54936)?
viability hit class: no change; caspase hit class: no change; viability robust z-score: 1.12; caspase robust z-score: 0.72; activity call: inactive

What did the screen give for TRIP6 (GeneID 7205)?
viability hit class: no change; caspase hit class: no change; viability robust z-score: 0.32; caspase robust z-score: -0.08; activity call: inactive

For LTBP1 (GeneID 4052), what was measured?
viability hit class: no change; caspase hit class: no change; viability robust z-score: -0.04; caspase robust z-score: -0.63; activity call: inactive

For CH25H (GeneID 9023), how do the results read?
viability hit class: no change; caspase hit class: no change; viability robust z-score: 0.44; caspase robust z-score: -0.62; activity call: inactive

For OAZ3 (GeneID 51686), what does the deposit list?
viability hit class: no change; caspase hit class: no change; viability robust z-score: -1.8; caspase robust z-score: 1.88; activity call: inactive

With LTBP2 (GeneID 4053), what was measured?
viability hit class: no change; caspase hit class: no change; viability robust z-score: -0.35; caspase robust z-score: -0.5; activity call: inactive

With TRIM43B (GeneID 653192), what was measured?
viability hit class: no change; caspase hit class: no change; viability robust z-score: 0.16; caspase robust z-score: -0.76; activity call: inactive

For GLRA1 (GeneID 2741), how do the results read?
viability hit class: no change; caspase hit class: no change; viability robust z-score: -0.34; caspase robust z-score: -0.36; activity call: inactive

With CRYBG2 (GeneID 55057), what does the deposit list?
viability hit class: no change; caspase hit class: no change; viability robust z-score: -1.09; caspase robust z-score: 2.51; activity call: inactive

With PTPN22 (GeneID 26191), what does the deposit list?
viability hit class: no change; caspase hit class: no change; viability robust z-score: -1.58; caspase robust z-score: 2.06; activity call: inactive

What did the screen give for ANKRD17 (GeneID 26057)?
viability hit class: no change; caspase hit class: no change; viability robust z-score: -0.26; caspase robust z-score: -0.04; activity call: inactive

How did the screen score TRMT1 (GeneID 55621)?
viability hit class: no change; caspase hit class: no change; viability robust z-score: -1.73; caspase robust z-score: 4.19; activity call: inactive

Records above whose gene name starts with S or s (4):
SKIL (GeneID 6498) — viability hit class = no change; caspase hit class = no change; viability robust z-score = 1; caspase robust z-score = -1.09; activity call = inactive
SCAND3 (GeneID 114821) — viability hit class = no change; caspase hit class = no change; viability robust z-score = 0.51; caspase robust z-score = -1.21; activity call = inactive
SLC2A4 (GeneID 6517) — viability hit class = no change; caspase hit class = no change; viability robust z-score = 0.15; caspase robust z-score = -0.66; activity call = inactive
SFN (GeneID 2810) — viability hit class = no change; caspase hit class = no change; viability robust z-score = -0.54; caspase robust z-score = 0.58; activity call = inactive
